Earlier results as cited in US20230304031A1, “VECTORS AND METHODS FOR IN VIVO TRANSDUCTION” (Abintus Bio, Inc., priority 2020, published 2023).
Some entries share one result that the patent states for a list of compounds.

Test system: HSPC
Conditions: hematopoietic growth factors alone; cited from earlier work

B1: G-CSF: hematopoietic growth factor (protein, UniProt P09919 31-207, looked up)
Granulocyte …: TPLGPASSLPQSFLLKCLEQVRKIQGDGAALQEKLVSECATYKLCHPEELVLLGHSLGIPWAPLSSCPSQALQLAGCLSQLHSGLFLYQGLLQALEGISPELGPTLDTLQLDVADFATTIWQQMEELGMAPALQPTQGAMPAFASAFQRRAGGVLVASHLQSFLEVSYRVLRHLAQP
HSPC in the peripheral blood over baseline: up to 60 fold
